Several values for one entry are separate records, joined by “and”; a condition that tells them apart may be missing. Equal entries are not always repeated. Screen size: about 59,000 compounds; about 6,500 (11%) were called active. The inconclusive results got no clear call from the source; some entries with a clear call stand among them for comparison. Rule as the data show it: active = max dye-equivalent concentration above about 10 nM; inconclusive = mostly about 1.1 nM to 9.6 nM; inactive = weaker than that.
Experiment: qHTS Assay for Spectroscopic Profiling in A350 Spectral Region
Conditions: Compound autofluorescence, 340/450 nm, Alexa 350 dye-equivalents; stronger effect = higher value

| SMILES | max dye-equivalent concentration |
| --- | --- |
| COC(=O)C1=C(C)N=c2s/c(=C/c3ccoc3)c(=O)n2C1c1ccccc1 (centres undefined) | inactive |
| Cc1c(C(=O)OCC2CCCO2)[nH]c2c1C(=O)CC(c1ccco1)C2 (centres undefined) | inactive |
| COc1ccc(CCNC(=O)c2c(O)c3cccc4c3n(c2=O)CC4)cc1OC | inconclusive: 2.5e-09 M |
| CN(C1CCS(=O)(=O)C1)S(=O)C12CC3CC(CC(C3)C1)C2 (centres undefined) | inconclusive: 2.2e-09 M |
| COCCOC(=O)c1c(C)nc(SCC(=O)Nc2ccc(OC)cc2)c(C#N)c1-c1ccco1 | inconclusive: 1.9e-09 M |
| CCC(C)NC(=O)CSC1=Nc2ccccc2C2=NC(CC(=O)NCc3ccccc3)C(=O)N12 (centres undefined) | active: 3.7e-07 M |
| CC1CCCCN1C(=O)CSc1nnc(-c2ccco2)n1CC1CCCO1 (centres undefined) | inconclusive: 2.7e-09 M |
| COc1ccc(CNc2nc3ccccc3n2CCN2CCCCC2)c(OC)c1 | active: 3.2e-07 M |
| COc1ccccc1CNc1cc(-c2cccc(NS(C)(=O)=O)c2)ncn1 | inactive |
| COc1ccc(N2CCn3c2nc2c3c(=O)n(CCCc3ccccc3)c(=O)n2C)c(OC)c1 | inconclusive: 1.2e-09 M |
| N=c1cc(C2(O)CCCCC2)n2c(nc3ccccc32)s1 | inconclusive: 1.7e-09 M |
| c1ccc(-c2cc3c(-n4cccc4)ncnc3o2)cc1 | active: 5.4e-08 M |
| Cc1noc(C)c1C(=O)N1CCN(c2ncccn2)CC1 | inconclusive: 3.8e-09 M |
| O=C(Cn1nnc2c(cnn2-c2ccccc2)c1=O)N1CCN(c2ccccc2F)CC1 | inactive |
| CCOC(=O)C1=C(C)NC(=O)C(C#N)C1c1ccco1 (centres undefined) | inactive |
| O=C(O)CCC(=O)c1cccc2ccccc12 | inconclusive: 2.9e-09 M |
| CSc1nc2c(c(=O)n1-c1ccc(F)cc1)SCC2 | inconclusive: 1.9e-09 M |
| O=C(NCc1cccnc1)C1CCN(C(=O)c2ccc(Cl)cc2Cl)CC1 | inconclusive: 2.4e-09 M |
| N=C1[C@@H](O)[C@]2(I)c3ccccc3N3C(=N)[C@H](O)[C@@H]4c5ccccc5N1[C@@H]4[C@@H]32 | active: 1.9e-08 M |
| CC1(C)CC(O)C(C)(C)N1O (centres undefined) | inconclusive: 1.2e-09 M |
| Cc1ccc(C(=O)Nc2nc3c(s2)CCCC3)o1 | active: 3.3e-07 M |
| CC1=CC(=O)c2ccccc2C1=O | inconclusive: 4.3e-09 M |
| CC(C)C(c1nnnn1Cc1ccc(F)cc1)N1CCN(C(=O)c2ccco2)CC1 (centres undefined) | inconclusive: 1.3e-09 M |

| SMILES | max dye-equivalent concentration |
| --- | --- |
| CC(C)[C@](N)(C(=O)O)c1ccccc1 | inactive |
| CCCCN(CC)CCNC(=O)C1c2cc(OC)c(OC)cc2C(=O)N2CCc3ccccc3C12 (centres undefined) | inactive |
| COCCNC(=O)C(c1cccc(OC)c1)N(Cc1cccs1)C(=O)Cn1nnc2ccccc21 (centres undefined) | inconclusive: 1.5e-09 M |
| Fc1ccc(CSc2ncnc3c2oc2ccccc23)cc1 | inconclusive: 1.4e-09 M |
| CC(C)n1c(-c2cccnc2)nc2cnccc21 | inconclusive: 3.6e-09 M |
| CCOC(=O)c1cccnc1SCC(=O)N(C)c1ccccc1 | inconclusive: 6.3e-09 M |
| CCOC(=O)c1c(NC(=O)CSc2nnc(CNc3ccc(OC)cc3)n2C)sc(C)c1C | inactive |
| Cc1ccc(N2CCCCn3c2nc2c3c(=O)n(CC(=O)O)c(=O)n2C)cc1 | inconclusive: 4.3e-09 M |
| C[N+]1(NCC[N@@+]2(C)CCc3ccccc3C2)CCCCC1 | inactive |
| CCN(CC)C(=O)CSc1nnc(-c2ccccc2)n1N | inconclusive: 3.7e-09 M |
| COc1ccc(CCN(C)C(=O)CN2C(=O)c3ccccc3S2(=O)=O)cc1OC | inconclusive: 1.3e-09 M |
| COc1ccc(NC(C)=O)cc1NC(=O)CSc1nc2ncccc2[nH]1 | inconclusive: 1.1e-09 M |
| CC(NC(=O)CN1CCC(C(N)=O)CC1)c1ccccc1 (centres undefined) | inconclusive: 1.9e-09 M |
| O=C(c1cc2cc(Cl)ccc2oc1=O)N1CCCC1 | inconclusive: 8.5e-09 M |
| COc1ccc(-n2nnnc2SCC(=O)Nc2ccc3c(c2)OCCO3)cc1OC | inactive |
| Brc1ccccc1-c1nnc(CSc2nncn2-c2ccccc2)o1 | inactive |
| COc1ccc(-n2ncc3c(N4CCc5ccccc54)ncnc32)cc1 | inconclusive: 6.4e-09 M |
| CC(C)(C)N(Cc1ccccc1)C(=O)c1ccc2c(c1)OCCO2 | inconclusive: 3.1e-09 M |
| CCNc1cccc2c1C(=O)N(C)C2=O | inconclusive: 6e-09 M |
| OCCNc1ncnc2c1ncn2Cc1ccccc1 | inconclusive: 2.3e-09 M |
| CCN(CC)S(=O)(=O)c1cccc(C(=O)Nc2nc3cc4c(cc3s2)OCCO4)c1 | active: 1.7e-08 M |
| CC(=O)N1CCCc2cc(S(=O)(=O)N3CCc4ccccc4C3)ccc21 | active: 6.7e-08 M |
| COC(=O)c1cc(OC)c(OC)cc1NC(=O)Nc1ccccc1OC | inconclusive: 2.8e-09 M |

A draw from above in order of number of heavy atoms, rising.

| SMILES | max dye-equivalent concentration |
| --- | --- |
| CN(C1CCS(=O)(=O)C1)S(=O)C12CC3CC(CC(C3)C1)C2 (centres undefined) | inconclusive: 2.2e-09 M |
| Fc1ccc(CSc2ncnc3c2oc2ccccc23)cc1 | inconclusive: 1.4e-09 M |
| N=C1[C@@H](O)[C@]2(I)c3ccccc3N3C(=N)[C@H](O)[C@@H]4c5ccccc5N1[C@@H]4[C@@H]32 | active: 1.9e-08 M |
| Cc1ccc(N2CCCCn3c2nc2c3c(=O)n(CC(=O)O)c(=O)n2C)cc1 | inconclusive: 4.3e-09 M |

(listing goes on)

| SMILES | max dye-equivalent concentration |
| --- | --- |
| CCCCCCn1c(N2CCN(c3cccc(Cl)c3)CC2)nc2c1c(=O)[nH]c(=O)n2C | inactive |
| Nn1c(SCC(=O)Nc2ccc(F)cc2)nnc1-c1ccccn1 | inconclusive: 1.1e-09 M |
| COc1ncc2nc(-c3cc(F)cc(F)c3)c(=O)n(-c3ccccc3)c2n1 | inconclusive: 2.7e-09 M |
| COc1ccc(CN2CC(C(=O)NCc3ccccn3)CC2=O)cc1 (centres undefined) | inconclusive: 5.7e-09 M |
| O=C(Nc1ccc(F)cc1)N1CCN(C/C=C/c2ccccc2)CC1 | inactive |
| Cc1ccc(C(=O)NCCCNCCCN(C)C)cn1 | inconclusive: 1.5e-09 M |
| Cn1c(=O)c2cn(-c3cccc4ccccc34)cc2n(C)c1=O | inconclusive: 2.6e-09 M |
| CCOc1ccc(C2C=C(c3ccc(C)cc3)Nc3nnnn32)cc1 (centres undefined) | inconclusive: 9.5e-09 M |
| CCOC(=O)N1CCN(C(=O)CCn2nc(-c3ccccc3)ccc2=O)CC1 | active: 9.4e-08 M |
| COc1ccc(-n2nc(C(=O)NCC(=O)NCc3ccco3)c3ccccc3c2=O)cc1Cl | inconclusive: 5.8e-09 M |
| O=C(c1c[nH]c2ccccc12)C(O)C(c1ccccc1)N1CCOCC1 (centres undefined) | inconclusive: 3.5e-09 M |
| COc1ccc(NC(=O)N2CCCC(c3nc(-c4ccc(C(C)C)cc4)no3)C2)cc1 (centres undefined) | inactive |
| C=CCNC(=O)N[C@@H](CCSC)C(=O)OC | inconclusive: 3.4e-09 M |
| COc1cc(OC)cc(C(=O)N2CCC(N3CCCCCC3)CC2)c1 | inconclusive: 1.9e-09 M |
| O=S(=O)(Nc1nc2ccccc2nc1N1CCN(c2ccccn2)CC1)c1ccc(Cl)cc1 | inconclusive: 6.4e-09 M |
| COC(=O)c1ccc(-c2ccc(C(=O)N3CCCN(C)CC3)cc2)cc1 | inconclusive: 2.4e-09 M |
| CC[C@@H](c1ccc2cc(O)ccc2c1)C(C)(C)C(=O)O | inconclusive: 2.3e-09 M |
| CN(C)c1ccc(N=Nc2cccc3ccoc23)cc1 | inactive |
| CCCCn1c(SCC(=O)c2ccc3c(c2)OCCO3)nnc1-c1ccco1 | inactive |
| COc1cc(-c2nc(-c3cccc(C(F)(F)F)c3)no2)cc(OC)c1OC | inconclusive: 1.6e-09 M |
| O=C(Nc1ccc2oc(-c3cccnc3)nc2c1)c1cccnc1 | inconclusive: 2.1e-09 M |
| C=CCn1c(SCc2c(F)c(F)c(F)c(F)c2F)nc(O)cc1=O | inconclusive: 4.5e-09 M |
| COc1cccc(-c2cc(C(F)(F)F)nc(NCc3ccco3)n2)c1 | inconclusive: 2.4e-09 M |

| SMILES | max dye-equivalent concentration |
| --- | --- |
| COc1ccc2cc(CN(Cc3cccnc3)Cc3nnnn3Cc3ccccc3)c(=O)[nH]c2c1 | inconclusive: 1.6e-09 M |
| COc1ccc2c(c1)[n+]([O-])c(/C(C)=N/NC(N)=S)c(C)[n+]2[O-] | active: 2e-08 M |
| CCOC(=O)c1ccc(NC(=O)CSC2=NC(=O)C(CC)C(=O)N2)cc1 (centres undefined) | inconclusive: 1.9e-09 M |
| CCOC(=O)c1c(N)sn(-c2ccccc2)c1=S | inconclusive: 1.5e-09 M |
| Nc1n[nH]c(S(=O)(=O)CCCc2ccccc2)n1 | inconclusive: 2.6e-09 M |
| CCOC(=O)c1cc(-c2cccnc2)nn1-c1ccccn1 | active: 1.4e-08 M |
| COc1cc2c(cc1OC)C(c1ccsc1)CC(=O)N2 (centres undefined) | inconclusive: 1.2e-09 M |
| Cc1ccc2nc(C3CCN(C(=O)c4ccco4)CC3)[nH]c2c1 | inactive |
| CCN(CC)C(=O)CSc1nnc([C@@H](N)Cc2ccccc2)o1 | inconclusive: 1.9e-09 M |
| CN(C)c1ncc2ncc(=O)n(Cc3ccc(F)cc3)c2n1 | inconclusive: 8.2e-09 M |
| COc1ccc2cc(C3(C)NC(=O)N(CC(=O)NCc4ccco4)C3=O)ccc2c1 (centres undefined) | inactive |
| CC(=O)c1sc2nc(SCC(=O)N3CCCCC3)[nH]c(=O)c2c1C | inconclusive: 1.5e-09 M |
| CCCCOc1ccc(OCCCC)c2c1NC1(N2)C(=O)N(C(C)=O)c2ccccc21 | inconclusive: 3.7e-09 M |
| c1ccc(Cn2nnnc2CN2CCCC2)cc1 | inactive |
| O=C(C1CCC(CNc2nc(=S)[nH]c3ccccc23)CC1)N1CCN(c2ccccn2)CC1 (centres undefined) | inconclusive: 2.6e-09 M |
| CCOc1ccc2c(c1)n([O-])c1c([n+]2=O)CCCC1 | active: 6.9e-08 M |
| CCn1cc(C(=O)O)c(=O)c2cc(F)c(N3CCN[C@@H](C)C3)c(F)c21 | inconclusive: 7.9e-09 M and active: 1.5e-08 M |
| O=C(Nc1ccccc1C(=O)NCc1ccc(Cl)cc1)c1ccco1 | inactive |
| O=C(NC1CCCCCC1)C1CCN(S(=O)(=O)N2CCC3(CC2)OCCO3)CC1 | inconclusive: 4.9e-09 M |
| CCOC(=O)CSc1nnc(-c2ccoc2C)n1-c1ccc(OCC)cc1 | inconclusive: 1.3e-09 M |
